Source: PubChem BioAssay AID1053133 (Broad Institute, 2014).

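Vaccinia-infected cells with a two-color viral stage reporter; Venus fluorescence read on a plate reader; the cell line is not named here; timing not stated here. The test concentration is not given here. Percent change in Venus reporter signal; lower (more negative) values mean stronger inhibition of that viral stage.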

Values are in %. How 0% and 100% were set is not given here. Common to all entries: measured here: Venus reporter, other viral stage. Part of the compounds only, not a random draw; the main read-out is not listed here.

Compound	activity change (Venus) (%)
OC[C@H]1[C@H](c2ccc(-c3ccccc3)cc2)[C@@H]2CN(CCC(F)(F)F)CCCCN12	-33.3
CO[C@@H]1CN(C)C(=O)c2cc(NS(=O)(=O)c3cccc(F)c3)ccc2OC[C@@H](C)N(Cc2cc(F)ccc2F)C[C@@H]1C	-54.8
COc1ccc(C#Cc2ccc([C@@H]3[C@H](CO)N4C(=O)CN(C(=O)Nc5ccccc5F)C[C@@H]34)cc2)cc1	-54.03
CC(C)C#Cc1ccc2c(c1)O[C@@H](CN(C)CC1CCOCC1)[C@H](C)CN([C@@H](C)CO)S2(=O)=O	-43.58
C[C@@H]1CN([C@H](C)CO)C(=O)c2cccc(NC(=O)c3ccncc3)c2O[C@H]1CN(C)Cc1ccc(-c2ccccc2)cc1	-34.23
COc1ccc(C#Cc2ccc3c(c2)O[C@H](CN(C)C(=O)CN2CCOCC2)[C@H](C)CN([C@H](C)CO)S3(=O)=O)cc1	-34.7
CC(C)CC#Cc1ccc2c(c1)O[C@@H](CN(C)Cc1ccncc1)[C@@H](C)CN([C@H](C)CO)S2(=O)=O	-48.38
C[C@H](C(=O)N(C)C[C@H]1OCc2ccccc2-c2c(n(C)c3ccccc23)C(=O)N([C@@H](C)CO)C[C@@H]1C)c1ccccc1	-46.7
C[C@@H]1CN([C@@H](C)CO)S(=O)(=O)c2ccc(C3=CCCCC3)cc2O[C@@H]1CN(C)C(=O)Cc1ccccc1	-56.21
C[C@@H]1CN([C@H](C)CO)S(=O)(=O)c2ccc(C#CC3CCCC3)cc2O[C@@H]1CN(C)C(=O)Cc1ccccc1	-52.82
C[C@@H]1CN([C@@H](C)CO)C(=O)c2cccc(NC(=O)Nc3ccc(C(F)(F)F)cc3)c2O[C@@H]1CN(C)S(=O)(=O)c1cccs1	-44.55
COCC(=O)N(C)C[C@H]1Oc2cc(C#CCC3CCCC3)ccc2S(=O)(=O)N([C@@H](C)CO)C[C@@H]1C	-50.51
O=C(C[C@@H]1CC[C@@H]2[C@H](COC[C@@H](O)CN2CCc2ccccc2)O1)N1CCC(Cc2ccccc2)CC1	-33.59
COc1ccc(NC(=O)N(C)C[C@H]2OCc3ccccc3-c3c(n(C)c4ccccc34)C(=O)N([C@H](C)CO)C[C@@H]2C)cc1	-29.18
C[C@@H]1CCCCO[C@@H](CN(C)S(=O)(=O)c2ccc(Cl)cc2)[C@H](C)CN([C@@H](C)CO)C(=O)c2cc(NC(=O)c3ccncc3)ccc2O1	-45.96
N#Cc1ccc(-c2ccc([C@@H]3[C@@H](CO)N4CCCCN(C(=O)Nc5ccc(F)cc5)C[C@H]34)cc2)cc1	-44.85
O=C(C[C@@H]1CC[C@@H]2[C@H](COC[C@@H](O)CN2CCC(F)(F)F)O1)NCc1ccc(Oc2ccccc2)cc1	-29.94
COc1ccc(NC(=O)Nc2ccc3c(c2)C(=O)N([C@@H](C)CO)C[C@H](C)[C@@H](CN(C)CC2CCCCC2)OCCCC[C@H](C)O3)cc1	-53.27
COCC#Cc1ccc2c(c1)O[C@@H](CN(C)Cc1ccccc1)[C@H](C)CN([C@@H](C)CO)S2(=O)=O	-27.29
COc1ccc(CN(C)C[C@@H]2OCCCC[C@H](C)Oc3ccc(NC(=O)NC4CCCCC4)cc3C(=O)N([C@H](C)CO)C[C@@H]2C)cc1	-53.1
C[C@@H]1CN([C@H](C)CO)C(=O)Cc2cc(NC(=O)C3CCCCC3)ccc2O[C@@H]1CN(C)Cc1ccc(Cl)c(Cl)c1	-47.75
COc1ccccc1NC(=O)N1CCCCN2[C@H](CO)[C@H](c3ccc(-c4cccc(F)c4)cc3)[C@@H]2C1	-35.05
CC(C)CC#Cc1ccc2c(c1)O[C@H](CN(C)Cc1cccc(F)c1)[C@H](C)CN([C@H](C)CO)S2(=O)=O	-55.62
COc1ccc2c3c(n(C)c2c1)[C@H](CO)N(Cc1cccc(F)c1)CC31CCN(C(=O)Cc2ccccc2)CC1	-41.48
CCCC#Cc1ccc([C@@H]2[C@H]3CN(S(=O)(=O)c4ccccc4C)CCCCN3[C@H]2CO)cc1	-36.79
C[C@@H]1CN([C@H](C)CO)C(=O)Cc2cc(NC(=O)Nc3ccccc3)ccc2O[C@@H]1CN(C)Cc1ccc(Cl)c(Cl)c1	-40.87
C[C@@H]1CN([C@@H](C)CO)C(=O)c2cc(N(C)C)ccc2O[C@@H](C)CCCCO[C@@H]1CN(C)Cc1ccc(C(F)(F)F)cc1	-47.09
CCCC#Cc1ccc2c(c1)O[C@H](CN(C)C(=O)C1CCC1)[C@@H](C)CN([C@@H](C)CO)S2(=O)=O	-37.35
C[C@H]1CCCCO[C@H](CN(C)S(=O)(=O)c2ccc(F)cc2)[C@@H](C)CN([C@@H](C)CO)C(=O)c2cc(NS(=O)(=O)c3ccc(Cl)cc3)ccc2O1	-37.2
C[C@H](CO)N1C[C@H](C)[C@H](CN(C)Cc2ccc(Cl)c(Cl)c2)Oc2ccc(NC(=O)CCCCCC(=O)Nc3ccccc3N)cc2C1=O	-27.68
C[C@@H]1CN([C@@H](C)CO)C(=O)c2cc(NC(=O)NC3CCCCC3)ccc2O[C@@H](C)CCCCO[C@@H]1CN(C)Cc1ccccc1	-49.75
Cc1cc(C(=O)Nc2cccc3c2O[C@@H](CN(C)Cc2ccc(C(F)(F)F)cc2)[C@H](C)CN([C@H](C)CO)C3=O)n(C)n1	-36.17
O=C(C[C@@H]1CC[C@H]2[C@@H](COC[C@H](O)CN2C(=O)Nc2cc(Cl)cc(Cl)c2)O1)NCC1CCCCC1	-33.4
COc1ccc(CN(C)C[C@H]2OCCCC[C@H](C)Oc3ccc(NS(=O)(=O)c4ccc(Cl)cc4)cc3C(=O)N([C@@H](C)CO)C[C@@H]2C)cc1	-51.2
C[C@H](NC(=O)N(C)C[C@H]1OCc2ccccc2-c2c(n(C)c3ccccc23)C(=O)N([C@@H](C)CO)C[C@H]1C)c1ccccc1	-30.23
CC(C)C#Cc1ccc([C@@H]2[C@@H](CO)N3CCCCN(C(=O)Nc4ccccc4)C[C@@H]23)cc1	-46.06
C[C@H](CO)N1C[C@H](C)[C@@H](CN(C)C(=O)Nc2ccc3c(c2)OCO3)Oc2cc(C#Cc3ccncc3)ccc2S1(=O)=O	-78.17
O=C(C1CCCC1)N1CC(=O)N2[C@H](C1)[C@@H](c1ccc(C#Cc3cccc(F)c3)cc1)[C@@H]2CO	-76.44
COc1ccc(S(=O)(=O)Nc2ccc3c(c2)CC(=O)N([C@@H](C)CO)C[C@@H](C)[C@H](CN(C)Cc2ccccc2)O3)cc1	-41
C[C@@H]1CN([C@@H](C)CO)S(=O)(=O)c2ccc(C#Cc3ccccn3)cc2O[C@@H]1CN(C)Cc1cccc(F)c1	-54.04
C/C=C/c1ccc2c(c1)O[C@H](CN(C)Cc1cccc(F)c1)[C@H](C)CN([C@@H](C)CO)S2(=O)=O	-38.11
COc1ccc(NC(=O)N(C)C[C@@H]2Oc3ncc(C#Cc4ccc(F)cc4)cc3C(=O)N([C@H](C)CO)C[C@@H]2C)cc1	-36.43
O=C(CC1CC1)N1CC(=O)N2[C@H](CO)[C@H](c3ccc(C#Cc4cccc(F)c4)cc3)[C@H]2C1	-64.37

Repeated from the top, 5 entries:

* OC[C@H]1[C@H](c2ccc(-c3ccccc3)cc2)[C@@H]2CN(CCC(F)(F)F)CCCCN12 : activity change (Venus) -33.3%
* CO[C@@H]1CN(C)C(=O)c2cc(NS(=O)(=O)c3cccc(F)c3)ccc2OC[C@@H](C)N(Cc2cc(F)ccc2F)C[C@@H]1C : activity change (Venus) -54.8%
* COc1ccc(C#Cc2ccc([C@@H]3[C@H](CO)N4C(=O)CN(C(=O)Nc5ccccc5F)C[C@@H]34)cc2)cc1 : activity change (Venus) -54.03%
* CC(C)C#Cc1ccc2c(c1)O[C@@H](CN(C)CC1CCOCC1)[C@H](C)CN([C@@H](C)CO)S2(=O)=O : activity change (Venus) -43.58%
* C[C@@H]1CN([C@H](C)CO)C(=O)c2cccc(NC(=O)c3ccncc3)c2O[C@H]1CN(C)Cc1ccc(-c2ccccc2)cc1 : activity change (Venus) -34.23%